Experimental data from PubChem BioAssay AID248 (DTP/NCI, 2004).
The list is a part of this screen's results and no random one: it gathers tests that were run many times, whatever their T/C, doses with no T/C, and many T/C values between a quarter and a half above the control. Further doses and runs are listed elsewhere. T/C is the treated group as % of the vehicle group. Some doses have a count of surviving animals in place of a T/C: the source holds a T/C of zero for them, seemingly a mark for toxic or unscored doses. Some survivor counts are full or nearly so, which does not show that the dose was tolerated: survival well below the control is almost never listed, so the zero probably covers shortened survival too. Counts of survivors are from the toxicity check (mostly the fifth day) where no day follows; animals may have died later. Schedules are NCI's codes, taken here to give the interval after Q, in days (D) or hours (H), and the number of doses after X. Some schedules carry Z or #; the key to these is not given. Some structures stand for samples that the source files as different forms (salt, stereo form or complex); doses refer to the form tested. Where survival is the endpoint, this PubChem deposit counts one and a half times the control or more as active, and values a quarter to a half above the control carry no call in these data; other NCI protocols may use other cut-offs. Counts like (3×) count equal records among those shown. Some entries hold several experiments; their values stand side by side, smallest first. Some T/C values carry the count of animals alive at the toxicity check (mostly the fifth day); without a count, all were alive then.

System: L1210 leukemia ip in BDF1 mice, survival T/C
Assay: NCI In Vivo Anticancer Drug Screen. Data for tumor model L1210 Leukemia (intraperitoneal) in B6D2F1 (BDF1) mice
Details: T/C endpoint: mean survival time, higher T/C = longer survival
[1] = dose: 400.0 mg/kg/injection, schedule: Q01DX001 (ip), vehicle: saline
[2] = dose: 80.0 mg/kg/injection, schedule: Q01DX001 (ip), vehicle: saline
[3] = dose: 100.0 mg/kg/injection, schedule: Q01DX001 (ip), vehicle: saline
[4] = dose: 200.0 mg/kg/injection, schedule: Q01DX001 (ip), vehicle: saline
[5] = dose: 40.0 mg/kg/injection, schedule: Q01DX001 (ip), vehicle: saline
[6] = dose: 100.0 mg/kg/injection, schedule: Q01DX009 (ip), vehicle: Klucel (hydroxypropylcellulose) (HPC)
[7] = dose: 200.0 mg/kg/injection, schedule: Q01DX009 (ip), vehicle: Klucel (hydroxypropylcellulose) (HPC)
[8] = dose: 400.0 mg/kg/injection, schedule: Q01DX009 (ip), vehicle: Klucel (hydroxypropylcellulose) (HPC)
[9] = dose: 200.0 mg/kg/injection, schedule: Q04DX003 (ip), vehicle: Klucel (hydroxypropylcellulose) (HPC)

SMILES: COc1cc(/C=C/[N+](=O)[O-])c([N+](=O)[O-])cc1OC
- survivor count (dose: 200.0 mg/kg/injection, schedule: Q01DX009 (ip), vehicle: saline with Tween-80): 3 of 6
- survivor count [1]: 0 of 4

SMILES: CC1=NCC[N-]CC[N-]CCN=C(C)C2CCCC1[N-]2.[Mn+3]
- survivor count [2]: 0 of 4
- survivor count [3]: 0 of 4
- survivor count [4]: 0 of 4
- survivor count [1]: 0 of 4

SMILES: BrC1=C(Br)C(Br)(Br)C(Br)=C1Br
- survivor count [5]: 1 of 6
- survivor count (dose: 75.0 mg/kg/injection, schedule: Q01DX001 (ip), vehicle: saline): 1 of 6
- survivor count (dose: 150.0 mg/kg/injection, schedule: Q01DX001 (ip), vehicle: saline): 0 of 6
- survivor count (dose: 300.0 mg/kg/injection, schedule: Q01DX001 (ip), vehicle: saline): 0 of 6

SMILES: Nc1nc(=S)c2ncn(C3OC(COC(=O)c4ccc(Cl)cc4)C(OC(=O)c4ccc(Cl)cc4)C3OC(=O)c3ccc(Cl)cc3)c2[nH]1 (stereo not given)
- T/C (dose: 5.3 mg/kg/injection, schedule: Q01DX Z (ip), vehicle: carboxymethylcellulose (CMC)): 130 % of control
- T/C (dose: 8.0 mg/kg/injection, schedule: Q01DX Z (ip), vehicle: carboxymethylcellulose (CMC)): 139 % of control
- T/C (dose: 25.0 mg/kg/injection, schedule: Q01DX Z (ip), vehicle: saline): 128 % of control [6 of 7 alive]
- T/C (dose: 29.0 mg/kg/injection, schedule: Q01DX Z (ip), vehicle: carboxymethylcellulose (CMC)): 139 % of control
- T/C (dose: 44.0 mg/kg/injection, schedule: Q01DX Z (ip), vehicle: carboxymethylcellulose (CMC)): 139 % of control (2×)
- T/C (dose: 66.0 mg/kg/injection, schedule: Q01DX Z (ip), vehicle: carboxymethylcellulose (CMC)): 145 % of control
- T/C (dose: 67.0 mg/kg/injection, schedule: Q01DX Z (ip), vehicle: carboxymethylcellulose (CMC)): 131 and 135 % of control
- T/C (dose: 100.0 mg/kg/injection, schedule: Q01DX Z (ip), vehicle: carboxymethylcellulose (CMC)): 135 and 142 % of control
- survivor count (dose: 100.0 mg/kg/injection, schedule: Q01DX Z (ip), vehicle: saline): 7 of 7
- T/C (dose: 150.0 mg/kg/injection, schedule: Q01DX Z (ip), vehicle: carboxymethylcellulose (CMC)): 133 % of control
- survivor count (dose: 200.0 mg/kg/injection, schedule: Q01DX Z (ip), vehicle: saline): 6 of 7

SMILES: C=CC[P+](c1ccccc1)(c1ccccc1)c1ccccc1
- survivor count (dose: 25.0 mg/kg/injection, schedule: Q01DX009 (ip), vehicle: Klucel (hydroxypropylcellulose) (HPC)): 0 of 6
- survivor count [5]: 1 of 6
- survivor count (dose: 50.0 mg/kg/injection, schedule: Q01DX009 (ip), vehicle: Klucel (hydroxypropylcellulose) (HPC)): 0 of 6
- survivor count [2]: 0 of 6
- survivor count [3]: 2 of 4
- survivor count [6]: 0 of 6
- survivor count [4]: 0 of 4
- survivor count [7]: 0 of 6
- survivor count [1]: 0 of 4
- survivor count [8]: 0 of 6

SMILES: O=[N+]([O-])c1cccc(S(=O)(=O)OCC2CO2)c1 (stereo not given)
- survivor count [8]: 5 of 6

SMILES: C[S+](C)C
- survivor count [6]: 2 of 6
- survivor count [4]: 1 of 6
- survivor count [7]: 0 of 6
- survivor count (dose: 200.0 mg/kg/injection, schedule: Q04DX003 (ip), vehicle: saline): 0 of 6
- survivor count [1]: 0 of 6
- survivor count (dose: 400.0 mg/kg/injection, schedule: Q04DX003 (ip), vehicle: saline): 0 of 6

SMILES: CCCCCCCCCCCCCCCCCCNC(=O)CCl
- survivor count [8]: 3 of 6

SMILES: CC1(C)C2CCC1(C)C(OCCCN=C(N)CSS(=O)(=O)O)C2 (stereo not given)
- survivor count (dose: 12.0 mg/kg/injection, schedule: Q04DX002 (ip), vehicle: Klucel (hydroxypropylcellulose) (HPC)): 3 of 3
- survivor count (dose: 25.0 mg/kg/injection, schedule: Q04DX002 (ip), vehicle: Klucel (hydroxypropylcellulose) (HPC)): 1 of 3
- survivor count (dose: 50.0 mg/kg/injection, schedule: Q04DX002 (ip), vehicle: Klucel (hydroxypropylcellulose) (HPC)): 0 of 3
- survivor count (dose: 100.0 mg/kg/injection, schedule: Q04DX002 (ip), vehicle: Klucel (hydroxypropylcellulose) (HPC)): 0 of 3

SMILES: COc1ccc(C(C#N)N2CCCC2)cc1 (stereo not given)
- survivor count (dose: 25.0 mg/kg/injection, schedule: Q01DX009 (ip), vehicle: other): 6 of 6
- survivor count (dose: 100.0 mg/kg/injection, schedule: Q04DX003 (ip), vehicle: other): 0 of 6
- survivor count (dose: 200.0 mg/kg/injection, schedule: Q04DX003 (ip), vehicle: other): 0 of 6
- survivor count (dose: 400.0 mg/kg/injection, schedule: Q04DX003 (ip), vehicle: other): 0 of 6

SMILES: CCN(CC)CCOc1cc(C)ccc1C(C)C
- survivor count [7]: 1 of 6
- survivor count [9]: 0 of 6
- survivor count (dose: 200.0 mg/kg/injection, schedule: Q04DX003 (ip), vehicle: saline with Tween-80): 2 of 6
- survivor count [1]: 0 of 4

SMILES: O=S1(=O)CC(Cl)C(I)C1 (stereo not given)
- survivor count (dose: 400.0 mg/kg/injection, schedule: Q01DX009 (ip), vehicle: saline with Tween-80): 0 of 6

SMILES: CN=C1C=C(NC)C(F)(F)C1(F)F
- survivor count (dose: 100.0 mg/kg/injection, schedule: Q04DX003 (ip), vehicle: Klucel (hydroxypropylcellulose) (HPC)): 0 of 6
- survivor count [9]: 0 of 6
- survivor count (dose: 400.0 mg/kg/injection, schedule: Q04DX003 (ip), vehicle: Klucel (hydroxypropylcellulose) (HPC)): 0 of 6
